Source: paper PMC7819943, “Rice protein-binding microarrays: a tool to detect cis-acting elements near promoter regions in rice”
This is one part of the list.

target: T1, OsSMF1 (Oryza sativa, UniProt Q6ZLB0 1-436); test: protein-binding microarray (RPBM); PBS, 2% BSA, 51.3 ng/ul salmon testes DNA, 50 uM zinc acetate, 200 nM TF, 25 C, 1 h; high values mean tight binding; details: protein: recombinant; tags: N-terminal polyhistidine and DsRed monomer fusion (pET32a); chain copies: 2; label: CyDye5-dUTP incorporated in the synthesized complementary strand; 3' TTTTT single-stranded linker to array surface; dsDNA, one strand shown
T1 sequence: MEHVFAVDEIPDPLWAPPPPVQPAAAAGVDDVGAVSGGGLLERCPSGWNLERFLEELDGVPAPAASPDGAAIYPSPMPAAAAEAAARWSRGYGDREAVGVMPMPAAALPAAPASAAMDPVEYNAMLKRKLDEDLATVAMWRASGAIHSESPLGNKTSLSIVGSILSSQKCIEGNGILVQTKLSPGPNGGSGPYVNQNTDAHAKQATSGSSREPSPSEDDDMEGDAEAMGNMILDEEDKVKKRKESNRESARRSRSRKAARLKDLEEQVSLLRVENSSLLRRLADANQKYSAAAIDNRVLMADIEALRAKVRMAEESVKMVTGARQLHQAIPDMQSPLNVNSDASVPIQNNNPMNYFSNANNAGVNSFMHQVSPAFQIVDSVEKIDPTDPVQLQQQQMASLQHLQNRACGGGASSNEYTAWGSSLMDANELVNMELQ
How it was run: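 Ni–NTA purification followed expression in E. coli BL21-CodonPlus of transcription factors fused N-terminally to a polyhistidine tag and DsRed. At 200 nM in PBS with 2% BSA, salmon testes DNA and 50 µM zinc acetate, the protein was incubated for 1 h at 25 °C with a custom Agilent array that had been primer-extended with Cy5-dUTP and blocked with 2% BSA. After washing, the array was read on an Axon 4000B scanner. The binding signal is per-feature fluorescence intensity in arbitrary units.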

Sequence	binding signal
TTGTAAGTACTACTACGGTACTACCTCATGATTGTTGCATCGGAGTCACCTAGTGCAG	21700 fluorescence intensity (a.u.)
TTCGCCTGGACGAAGCAGAGTCACCGTCACCGGCCATCCGCGGAGTCACCTAGTGCAG	5580 fluorescence intensity (a.u.)
AACTCACCTTTGACACGGACTTGTGTTGCCCTGCTGCAGTCGGAGTCACCTAGTGCAG	3780 fluorescence intensity (a.u.)
TGCACTACGGACCGAACACTTGGCACACATGCATGCAACCCGGAGTCACCTAGTGCAG	3260 fluorescence intensity (a.u.)
AAGCATTAACCAGCAAAAGATTAGTGAGTCACCACTCACTCGGAGTCACCTAGTGCAG	13200 fluorescence intensity (a.u.)
CCGGGCGGTCGATACACGACGGATTTTGCCGGCCGTCCTGCGGAGTCACCTAGTGCAG	3490 fluorescence intensity (a.u.)
ATCGATCGATCAATTGGCCAAGGCGGCAAACGGCGGCGGCCGGAGTCACCTAGTGCAG	4060 fluorescence intensity (a.u.)
ATATTTAGGTTCGTTGGTCTTGATTTATATACACTCTAAACGGAGTCACCTAGTGCAG	3320 fluorescence intensity (a.u.)
ATCAGAGTGGTTGGTGGTTAGGCATGCACGTCAGGGTTTCCGGAGTCACCTAGTGCAG	4840 fluorescence intensity (a.u.)
TGTGACCCTAGCAAAGCGGTGACTAAGGTGCTGTTAAGATCGGAGTCACCTAGTGCAG	4200 fluorescence intensity (a.u.)
AATGTTGTTGTCACGAATGCATCGATCGATAGACGGCCGGCGGAGTCACCTAGTGCAG	3320 fluorescence intensity (a.u.)
GCCTTTCGCCGGTAGCCACATCAGAAATATTGTGTTTGTTCGGAGTCACCTAGTGCAG	4170 fluorescence intensity (a.u.)
CGGCGGCGGAACCATAGAGCTGTCCATGATCAAGACGTGGCGGAGTCACCTAGTGCAG	6680 fluorescence intensity (a.u.)
CGTTCAGCGGGGTCGACGATGCCATGTCGGACGAAACCGCCGGAGTCACCTAGTGCAG	3170 fluorescence intensity (a.u.)
GCACAAAGCACCTCCACTTCATAATGTTCCCTAAACCTTTCGGAGTCACCTAGTGCAG	34300 fluorescence intensity (a.u.)
CACGGCGTGGTTTCATCTGGTAGGTCTGCGTCCTCTTTTGCGGAGTCACCTAGTGCAG	20800 fluorescence intensity (a.u.)
TTCTATCTTCTCTCCAAAAGTGACATGGTATCAGAGCAAGCGGAGTCACCTAGTGCAG	3530 fluorescence intensity (a.u.)
GAATTTACAAATGAATCAGCATGCAGTCCTTGTGGCGATACGGAGTCACCTAGTGCAG	3660 fluorescence intensity (a.u.)
GGTTTTCTAAGCTGACTTGACTAGTTGATTTGATGGCCCCCGGAGTCACCTAGTGCAG	4020 fluorescence intensity (a.u.)
ATATATATATATATATATATATATATATATATGCGCAGAGCGGAGTCACCTAGTGCAG	3240 fluorescence intensity (a.u.)
TACAGGGTATGACTGTGCTGGATATGACTGTGCTGTTACACGGAGTCACCTAGTGCAG	4580 fluorescence intensity (a.u.)

Sequence	binding signal
GCACATGCATGGCTTCACATCGAATTGAATGAGTTGGCGTCGGAGTCACCTAGTGCAG	4700 fluorescence intensity (a.u.)
GCACTTTGTCAAGGCTGTGGTGGATGTGTTTGCTGATCAACGGAGTCACCTAGTGCAG	3150 fluorescence intensity (a.u.)
CGGATCGAATTGCCACGTAAGCGGCACGTCAGTGCCATGTCGGAGTCACCTAGTGCAG	20000 fluorescence intensity (a.u.)
CGTACTTTCATCGTGCGATACCGTCCACGACGTCACCATGCGGAGTCACCTAGTGCAG	5520 fluorescence intensity (a.u.)
TATAAATTAAAATTTGGCTTATAACCCCAAGCATAAACCTCGGAGTCACCTAGTGCAG	37500 fluorescence intensity (a.u.)
TTCAGCAAAGGATTTCATGTGCCCCACCATATCCTTAAGACGGAGTCACCTAGTGCAG	31000 fluorescence intensity (a.u.)
AGCTGATGCACTGCCGGTTCTGCCTCTGCCTGCCTCGCCACGGAGTCACCTAGTGCAG	3360 fluorescence intensity (a.u.)
GTTTGGACTTTGAATCTTGACTCATATATACAGCCATCTACGGAGTCACCTAGTGCAG	4140 fluorescence intensity (a.u.)
GGCGTGTTTGACGAAATGCCGCGCCGGGACGACGACGCCACGGAGTCACCTAGTGCAG	3350 fluorescence intensity (a.u.)
ATGTTTGAGCATGCAGCAAAGACAGATCTAACACTCAAGCCGGAGTCACCTAGTGCAG	3970 fluorescence intensity (a.u.)
TGTTTAGACGCGTAATCCGCATGAACAATCCTGTCTCGATCGGAGTCACCTAGTGCAG	3550 fluorescence intensity (a.u.)
CTTCTAGCTGACACCTGTGCGCCGCCGCCTAATTTCAACTCGGAGTCACCTAGTGCAG	3930 fluorescence intensity (a.u.)
CCCACATTTTCCCGGCCGTCGTTCCCGCCGACGAGCTCTTCGGAGTCACCTAGTGCAG	3190 fluorescence intensity (a.u.)
AGAGTGAGAGAGAAGTGAGAGAGAGTGTGTGTGAGAGAGACGGAGTCACCTAGTGCAG	5620 fluorescence intensity (a.u.)
ATCATGTGAACTTCCCTATGACATGCCACATCAAATATTGCGGAGTCACCTAGTGCAG	3310 fluorescence intensity (a.u.)
CTAAACACGTCCTATCATGTCACGTAGATAATATGACACGCGGAGTCACCTAGTGCAG	5080 fluorescence intensity (a.u.)
GAATATCATCATATGCTGCGTGTCTCCCGTCAGTCCCGTGCGGAGTCACCTAGTGCAG	4290 fluorescence intensity (a.u.)
GCCGCTGATTCTCGCCCGCCCACGTCGCCAGCGACGTCTGCGGAGTCACCTAGTGCAG	5280 fluorescence intensity (a.u.)
GGTCAATTACCGGTTGATCGAGCATCGTTTCCGAAGAGATCGGAGTCACCTAGTGCAG	4550 fluorescence intensity (a.u.)
GCCATCGCCATCGCCATCGCCGTCGCGCGACGACGTGTTGCGGAGTCACCTAGTGCAG	4670 fluorescence intensity (a.u.)
ACGGCGCCGTGTGCCACGTCGGCTTGCCGCCCTTTGAAAGCGGAGTCACCTAGTGCAG	17200 fluorescence intensity (a.u.)

Sequence	binding signal
TCCGAACATCCGCGTGTCTGCTTCTGCGCCAGCCCGAGCCCGGAGTCACCTAGTGCAG	44300 fluorescence intensity (a.u.)
CCGTATGCTCCGTATGTTCGAGGATCCCTTTCCGACCGCGCGGAGTCACCTAGTGCAG	3430 fluorescence intensity (a.u.)
CATCAAATCCAACGGCCCCACCTCACGTCACGATCTCACGCGGAGTCACCTAGTGCAG	3340 fluorescence intensity (a.u.)
CACCATTATTGCCAATTATCCTTGCTTGCGTGGTAGAGTACGGAGTCACCTAGTGCAG	5860 fluorescence intensity (a.u.)
CAAAACATGCCGATTATTATTGACTGGATTTAGATAGACACGGAGTCACCTAGTGCAG	3840 fluorescence intensity (a.u.)
TATATAAGTCAAACCACAGCCTCCACGCAATACACGTGAACGGAGTCACCTAGTGCAG	4440 fluorescence intensity (a.u.)
AAATTGCTGAGACGCGATTACACCGACTCTGGTCGTCTCACGGAGTCACCTAGTGCAG	3210 fluorescence intensity (a.u.)
GACAGGCCGCCTGTTGCCACCTAACCCGTGATCTGACCGGCGGAGTCACCTAGTGCAG	3590 fluorescence intensity (a.u.)
GCTCGCCGCCGACTCCACCTCCCCGTCGCGGCGGCATCGACGGAGTCACCTAGTGCAG	3930 fluorescence intensity (a.u.)
CACAGTAGTTACACCTCATTTACACCCCACTTACATATGTCGGAGTCACCTAGTGCAG	3450 fluorescence intensity (a.u.)
CTGCTAAATGGCACGTTTCGTGTGAAAACTTTATATAGAACGGAGTCACCTAGTGCAG	3410 fluorescence intensity (a.u.)
CGTCCCTTGGACGTCATCTTCTCCTCACGTGCATTGCCTCCGGAGTCACCTAGTGCAG	4360 fluorescence intensity (a.u.)
CTTGCCCAAACGAAGGAGAATTTTGAGAGAGAGAAGGAAGCGGAGTCACCTAGTGCAG	25900 fluorescence intensity (a.u.)
GGCCGCTCGTTCGGGCGGGTGACAAGGCGAAGGAGGGAAGCGGAGTCACCTAGTGCAG	5020 fluorescence intensity (a.u.)
CAACACCCAACCCCAATTGGTCGCGGTGGGTCGGACGGACCGGAGTCACCTAGTGCAG	34900 fluorescence intensity (a.u.)
AGGAGGATATAGCACCAACCAAACTGTGCACCTAACATTGCGGAGTCACCTAGTGCAG	24100 fluorescence intensity (a.u.)
GTCTTCGTGTTCGTGACCTGTCCATGAGCAGAATTAGCTGCGGAGTCACCTAGTGCAG	5150 fluorescence intensity (a.u.)
ATTCCAGCACTAATGTGTCATGGTTTACCTCAGCCACGCGCGGAGTCACCTAGTGCAG	5350 fluorescence intensity (a.u.)
ACACAGCACATGTCACCGCCTCGTCAGACCGGGCCCACACCGGAGTCACCTAGTGCAG	15600 fluorescence intensity (a.u.)
ATCGCTCGCCACGTGTCCACGCTCCACCCCAACCCCTCATCGGAGTCACCTAGTGCAG	24400 fluorescence intensity (a.u.)
CTTCAGCGGGCCAAGATCTGGGAGCCGGCGTGGCCTAAGGCGGAGTCACCTAGTGCAG	3380 fluorescence intensity (a.u.)

Sequence	binding signal
GCAGATCTTGACTATCTCCACGGGATATATACACGGCGGCCGGAGTCACCTAGTGCAG	22300 fluorescence intensity (a.u.)
GACAATGACACGTTCTACAAGATATACATTTGAGCTTATTCGGAGTCACCTAGTGCAG	3330 fluorescence intensity (a.u.)
TGAAACCTTAAAGGTGTTCTTACCGAGTGTCGGTTAGAAACGGAGTCACCTAGTGCAG	3210 fluorescence intensity (a.u.)
TTACTACCTATTCTAAAATATTAGAATATAAAATTGGATGCGGAGTCACCTAGTGCAG	32300 fluorescence intensity (a.u.)
CGGCGGCCTTGTCGCCGGTGACGGGAGGGAGAGGGGTCGTCGGAGTCACCTAGTGCAG	4630 fluorescence intensity (a.u.)
AAAAGTCCACGGTGGACCGGTTCCACCACCACCACCCTCCCGGAGTCACCTAGTGCAG	3970 fluorescence intensity (a.u.)
TCCAGCTATCGTAGTAGAGATGACGACATGCCAAAGTGGTCGGAGTCACCTAGTGCAG	3150 fluorescence intensity (a.u.)
CTTGCGTTGGTACAACAATCCGTCGAGAGCTCCGTGGCGTCGGAGTCACCTAGTGCAG	3340 fluorescence intensity (a.u.)
TGTTCTCCTACAGTCTCATCACCGATTGCTACTCCTATTACGGAGTCACCTAGTGCAG	3250 fluorescence intensity (a.u.)
CGAAGAGGAAGGGAAGGGCAGCGCCACGTCGACACCACGTCGGAGTCACCTAGTGCAG	24100 fluorescence intensity (a.u.)
ACATGTGGGCTCACAGCCCAGTCATAGCCCCATAGGTTGTCGGAGTCACCTAGTGCAG	6170 fluorescence intensity (a.u.)
CCGGGGCCCCTCGACGCGGCACGTGGCTCGCACATTCGCACGGAGTCACCTAGTGCAG	6690 fluorescence intensity (a.u.)
ACGCAGACATTCACGTTTCCTCCATGTGTCATCAATGATGCGGAGTCACCTAGTGCAG	5410 fluorescence intensity (a.u.)
AGATTTTGAGTCACATTTGACTCATGTCAGACAAGTCTTACGGAGTCACCTAGTGCAG	29300 fluorescence intensity (a.u.)
GTTTTAATCTACGTGGCAGTTGAGTCAGCATGGGACTCACCGGAGTCACCTAGTGCAG	18900 fluorescence intensity (a.u.)
CAAAGGGGCCCACCGAAGATGACCAAGTAGACAAGATTGGCGGAGTCACCTAGTGCAG	3760 fluorescence intensity (a.u.)
TCCCATGTCTCCGCCGCCGCGTCACCGCCCAGCACGAACCCGGAGTCACCTAGTGCAG	9060 fluorescence intensity (a.u.)
AGTTTTGATTGTTTTGAATACCTGGACTCTCTCACTATATCGGAGTCACCTAGTGCAG	3640 fluorescence intensity (a.u.)
GGTGATGCGGTCGACAAGCTCCCCGAGCTCACGTGGCGGCCGGAGTCACCTAGTGCAG	7930 fluorescence intensity (a.u.)
CTCTGAGTGGAAGGGCAGAGTCAGTGATGCTGCGTGGGAGCGGAGTCACCTAGTGCAG	4770 fluorescence intensity (a.u.)
CGTTGCAGAGCGACGTGGTCTTATCTGAGACGTCCGTACCCGGAGTCACCTAGTGCAG	3410 fluorescence intensity (a.u.)

Looked up one by one from above:
Sequence	binding signal
GCACAAAGCACCTCCACTTCATAATGTTCCCTAAACCTTTCGGAGTCACCTAGTGCAG	34300 fluorescence intensity (a.u.)
GCAGATCTTGACTATCTCCACGGGATATATACACGGCGGCCGGAGTCACCTAGTGCAG	22300 fluorescence intensity (a.u.)
GCACATGCATGGCTTCACATCGAATTGAATGAGTTGGCGTCGGAGTCACCTAGTGCAG	4700 fluorescence intensity (a.u.)

Quoted from the listing:
Value of CGTCCCTTGGACGTCATCTTCTCCTCACGTGCATTGCCTCCGGAGTCACCTAGTGCAG under binding signal: 4360 fluorescence intensity (a.u.)
Value of CGTTCAGCGGGGTCGACGATGCCATGTCGGACGAAACCGCCGGAGTCACCTAGTGCAG under binding signal: 3170 fluorescence intensity (a.u.)
